Measured values published in paper PMC10470531.

The chains behind the UniProt entries cited, without tags or fusion partners. Where a name states a change or a piece, a line headed by the entry shows the natural chain unless it says otherwise. Residues count along the entry.
UniProt P02769, residues 25-607: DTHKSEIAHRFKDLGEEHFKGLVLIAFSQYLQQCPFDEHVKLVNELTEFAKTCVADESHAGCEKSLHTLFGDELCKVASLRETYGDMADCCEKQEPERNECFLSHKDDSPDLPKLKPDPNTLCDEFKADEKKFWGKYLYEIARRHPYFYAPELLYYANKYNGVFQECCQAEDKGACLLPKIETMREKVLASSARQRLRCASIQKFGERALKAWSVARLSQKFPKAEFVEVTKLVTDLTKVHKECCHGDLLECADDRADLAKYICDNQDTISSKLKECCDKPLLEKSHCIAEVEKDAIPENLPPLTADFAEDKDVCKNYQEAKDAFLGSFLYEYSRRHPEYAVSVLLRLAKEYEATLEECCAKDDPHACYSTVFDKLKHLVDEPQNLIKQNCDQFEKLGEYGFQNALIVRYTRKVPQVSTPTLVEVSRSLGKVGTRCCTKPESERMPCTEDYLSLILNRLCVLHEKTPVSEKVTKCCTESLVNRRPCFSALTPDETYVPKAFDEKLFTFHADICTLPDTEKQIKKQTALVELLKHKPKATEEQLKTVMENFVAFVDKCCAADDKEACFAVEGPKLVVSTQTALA
UniProt D4GVJ5: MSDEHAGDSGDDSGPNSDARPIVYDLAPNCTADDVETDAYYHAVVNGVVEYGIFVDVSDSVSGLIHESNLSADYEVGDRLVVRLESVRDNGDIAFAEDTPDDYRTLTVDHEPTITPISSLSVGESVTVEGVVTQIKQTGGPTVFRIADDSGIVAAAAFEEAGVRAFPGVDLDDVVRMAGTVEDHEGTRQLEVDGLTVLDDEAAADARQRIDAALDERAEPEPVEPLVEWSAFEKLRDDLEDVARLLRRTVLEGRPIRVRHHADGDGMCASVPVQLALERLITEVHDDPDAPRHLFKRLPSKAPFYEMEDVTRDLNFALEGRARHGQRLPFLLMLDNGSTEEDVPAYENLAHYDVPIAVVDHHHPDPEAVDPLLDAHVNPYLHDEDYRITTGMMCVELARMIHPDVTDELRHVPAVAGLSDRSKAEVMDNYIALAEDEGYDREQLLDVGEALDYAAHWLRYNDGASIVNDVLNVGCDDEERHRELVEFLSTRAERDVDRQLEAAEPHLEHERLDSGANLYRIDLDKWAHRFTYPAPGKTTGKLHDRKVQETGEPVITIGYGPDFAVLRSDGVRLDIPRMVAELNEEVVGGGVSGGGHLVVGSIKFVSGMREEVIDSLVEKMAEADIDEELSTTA

Assays:
[1] = target: T1, aRNase J-StrepII (H. volcanii) (UniProt D4GW49); experiment: affinity purification with mass spectrometry; tandem affinity purification (HisTrap, then Strep-Tactin) of His6-RecJ3 and aRNase J-StrepII from H. volcanii HJ02-pJAM4252 against the empty vector; 2 M NaCl buffers; LC-MS/MS of the liquid fractions and AQUA-based MS/MS (SRM with heavy peptides) for the stoichiometry
T1 sequence: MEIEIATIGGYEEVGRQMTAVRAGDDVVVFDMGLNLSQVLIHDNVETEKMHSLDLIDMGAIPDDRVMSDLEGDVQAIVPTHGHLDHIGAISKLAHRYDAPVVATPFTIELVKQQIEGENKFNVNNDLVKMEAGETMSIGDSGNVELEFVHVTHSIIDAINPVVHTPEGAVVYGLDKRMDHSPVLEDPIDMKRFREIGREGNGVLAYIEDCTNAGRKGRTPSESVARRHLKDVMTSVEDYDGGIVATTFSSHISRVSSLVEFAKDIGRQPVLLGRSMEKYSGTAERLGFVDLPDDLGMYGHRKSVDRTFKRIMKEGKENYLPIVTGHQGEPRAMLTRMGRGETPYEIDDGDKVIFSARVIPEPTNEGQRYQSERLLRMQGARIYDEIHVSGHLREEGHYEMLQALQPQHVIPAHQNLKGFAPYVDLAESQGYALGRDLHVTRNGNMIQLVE

[2] = target: bovine serum albumin (bovine) (UniProt P02769); experiment: affinity purification with mass spectrometry; Flag-His6-SAMP1 (or BSA as control) covalently coupled to agarose beads (AminoLink Plus); H. volcanii NH02-pJAM957 cell lysate with 5 mM ATP and DNase; high-salt PBS (2 M NaCl, 0.1 M sodium phosphate), 4°C; eluted with 0.1 M glycine-HCl pH 2.5; non-reducing SDS-PAGE, SYPRO Ruby, LC-MS/MS of bands; only the target purified
[3] = target: T2, Ubl SAMP1 with an N-terminal Flag-His6-tag (H. volcanii) (UniProt D4GUF6); experiment: as above
T2 sequence: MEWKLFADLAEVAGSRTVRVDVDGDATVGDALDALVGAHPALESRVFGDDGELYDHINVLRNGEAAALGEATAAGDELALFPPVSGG

[4] = target: T2, Ubl SAMP1 with an N-terminal Flag-His6-tag (H. volcanii); experiment: condition: only ATP omitted from the binding buffer; affinity purification with mass spectrometry; as a1 but ATP omitted from the cell-free extract / binding buffer; only the target purified
[5] = target: T1, aRNase J-StrepII (H. volcanii); experiment: affinity purification with mass spectrometry; aRNase J-StrepII on Strep-Tactin resin from H. volcanii H26-pJAM1406 lysate against the empty vector; 50 mM Tris-HCl pH 7.5, 2 M NaCl, 1 mM DTT, 0.5 mM MnCl2, 4.5 mM MgCl2, 0.1 mM γATP; beads boiled, reducing SDS-PAGE, LC-MS/MS

Substance | binding [1] | binding [2] | binding [3] | binding [4] | binding [5]
DnaK chaperone | binds |  |  |  | 
RecJ3 (from UniProt D4GVJ5) |  | no binding | binds | no binding | 
RecJ4 |  |  | binds | no binding | binds

No constants are given. Whether binding was seen depends on the method and setting. Binding seen in cells or lysates may run through a third protein. These calls come from enrichment with a bait or labelling near it, and not all partners need be listed. For some of these results: No binding means not detected with the bait. For some of these results: Tags and fused reporters may be left off the sequences shown.
